Reference: article PMC8110583
Results are given in words; binding and its absence hold for the method and conditions named. In cells and extracts the contact can be indirect. Here binding means that the protein was enriched with, or labelled near, the bait; the list need not be complete.

Biological target: TDP-43 (human (endogenous in GPiNs, G401, T47D, A375)) (UniProt Q13148)
Experiment: affinity purification with mass spectrometry; IP of endogenous TDP-43 from GPiN lysate (1-2 mg extract, 1-2 ug antibody, 4 C overnight, Protein G beads) against isotype-matched IgG control, triplicate, label-free LC-MS/MS; interactors: log2 FC > 0 and FDR <= 0.1

B1: MATR3 (protein, UniProt P43243 1-847)
chain: MSKSFQQSSLSRDSQGHGRDLSAAGIGLLAAATQSLSMPASLGRMNQGTARLASLMNLGMSSSLNQQGAHSALSSASTSSHNLQSIFNIGSRGPLPLSSQHRGDADQASNILASFGLSARDLDELSRYPEDKITPENLPQILLQLKRRRTEEGPTLSYGRDGRSATREPPYRVPRDDWEEKRHFRRDSFDDRGPSLNPVLDYDHGSRSQESGYYDRMDYEDDRLRDGERCRDDSFFGETSHNYHKFDSEYERMGRGPGPLQERSLFEKKRGAPPSSNIEDFHGLLPKGYPHLCSICDLPVHSNKEWSQHINGASHSRRCQLLLEIYPEWNPDNDTGHTMGDPFMLQQSTNPAPGILGPPPPSFHLGGPAVGPRGNLGAGNGNLQGPRHMQKGRVETSRVVHIMDFQRGKNLRYQLLQLVEPFGVISNHLILNKINEAFIEMATTEDAQAAVDYYTTTPALVFGKPVRVHLSQKYKRIKKPEGKPDQKFDQKQELGRVIHLSNLPHSGYSDSAVLKLAEPYGKIKNYILMRMKSQAFIEMETREDAMAMVDHCLKKALWFQGRCVKVDLSEKYKKLVLRIPNRGIDLLKKDKSRKRSYSPDGKESPSDKKSKTDGSQKTESSTEGKEQEEKSGEDGEKDTKDDQTEQEPNMLLESEDELLVDEEEAAALLESGSSVGDETDLANLGDVASDGKKEPSDKAVKKDGSASAAAKKKLKKVDKIEELDQENEAALENGIKNEENTEPGAESSENADDPNKDTSENADGQSDENKDDYTIPDEYRIGPYQPNVPVGIDYVIPKTGFYCKLCSLFYTNEEVAKNTHCSSLPHYQKLKKFLNKLAEERRQKKET
Question: How did the binding turn out when B1 was run?
Answer: The binding was “binds”.
